We go through 54 sequences from publication PMC7819943, “Rice protein-binding microarrays: a tool to detect cis-acting elements near promoter regions in rice”.

The list shows a part of the results.

The target of this assay is T1, OsSMF1 (Oryza sativa, UniProt Q6ZLB0 1-436).
T1 sequence: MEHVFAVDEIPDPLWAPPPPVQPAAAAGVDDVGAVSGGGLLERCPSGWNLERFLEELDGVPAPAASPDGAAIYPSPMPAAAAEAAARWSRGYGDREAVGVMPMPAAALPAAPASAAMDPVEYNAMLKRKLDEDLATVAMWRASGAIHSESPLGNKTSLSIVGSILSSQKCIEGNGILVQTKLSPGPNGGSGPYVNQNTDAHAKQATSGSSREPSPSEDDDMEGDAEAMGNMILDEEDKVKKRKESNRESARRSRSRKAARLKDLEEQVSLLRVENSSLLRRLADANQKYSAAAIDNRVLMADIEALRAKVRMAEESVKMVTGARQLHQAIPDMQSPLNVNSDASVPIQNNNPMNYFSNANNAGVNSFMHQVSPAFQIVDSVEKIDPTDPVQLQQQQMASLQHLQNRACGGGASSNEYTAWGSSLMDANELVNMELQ
The experiment in a line: protein-binding microarray (RPBM); PBS, 2% BSA, 51.3 ng/ul salmon testes DNA, 50 uM zinc acetate, 200 nM TF, 25 C, 1 h; high values mean tight binding. The following applies: protein: recombinant; tags: N-terminal polyhistidine and DsRed monomer fusion (pET32a); chain copies: 2; label: CyDye5-dUTP incorporated in the synthesized complementary strand; 3' TTTTT single-stranded linker to array surface; dsDNA, one strand shown. The method, boiled down:
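Transcription factors, each fused N-terminally to a polyhistidine tag and DsRed, were expressed in E. coli BL21-CodonPlus and purified on Ni–NTA. A custom Agilent array was made double-stranded by primer extension with Cy5-dUTP and blocked with 2% BSA. It was incubated with 200 nM protein in PBS, 2% BSA, salmon testes DNA and 50 µM zinc acetate at 25 °C for 1 h, then washed. The binding signal is per-feature fluorescence intensity (arbitrary units) read on an Axon 4000B scanner.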
On to “GCCGCTCGCCGCCGTGCTCGCCGTGATCCTGCTGCCGTCGCGGAGTCACCTAGTGCAG”, for which the binding signal was 3800 fluorescence intensity (a.u.).

As to “TTCGATGGCATCGTGGCTTCTCGCATTCCCTCTTGTGGAGCGGAGTCACCTAGTGCAG”, the binding signal was 25800 fluorescence intensity (a.u.). Next, “CCCTTCAATTTTCTAGCTATAGCATCCTTCCGTGACGCAGCGGAGTCACCTAGTGCAG”: 5230 fluorescence intensity (a.u.). Next, “CTTGCCATGTCACAATCCTATCTCTTGCAGTCGCAGGCCGCGGAGTCACCTAGTGCAG”: 6940 fluorescence intensity (a.u.); “AAGAAGAAGACGACGACGTGGCGAGCCAAGTAGCAGCAAACGGAGTCACCTAGTGCAG”: 3620 fluorescence intensity (a.u.); “ATTTCCCTCCTGGTTTGAATCAGCATTGATCTGGTTTTCCCGGAGTCACCTAGTGCAG”: 4590 fluorescence intensity (a.u.).

Turning to “ATGCTGGATGCATTTGATGACTTGGTAAATGTAGAGAAGACGGAGTCACCTAGTGCAG”, the binding signal is 4270 fluorescence intensity (a.u.). Next, “CAGAAAGTCGTGCGTTGGACTGATCCTTTGCAAATGATCACGGAGTCACCTAGTGCAG”: 3200 fluorescence intensity (a.u.); “TAGTTTTCTCAGGTGTTTGGGAATTGGTTGGTGAAGATGACGGAGTCACCTAGTGCAG”: 9530 fluorescence intensity (a.u.); “CGGTCACGCAGGATGGACGTGCGGCACCGCCTCGCTCTTACGGAGTCACCTAGTGCAG”: 22700 fluorescence intensity (a.u.). Turning to “GCGACTTGGCCAGCCCAGGAGCCTCACTTGGCCTTGGGAACGGAGTCACCTAGTGCAG”, the binding signal is 36200 fluorescence intensity (a.u.). For “CTCACTTTTCGCGGCAACCTCAGTGAAGTCAGCGAGGTGACGGAGTCACCTAGTGCAG” the value was 31700 fluorescence intensity (a.u.); for “TCGAACCCGACGCCGCCGCCGTGACGCGGCGCTCCCTCCGCGGAGTCACCTAGTGCAG”, 11600 fluorescence intensity (a.u.); for “CGCCCCTCTCCTTGCCTGCAACGTCACATTCCCCACACTCCGGAGTCACCTAGTGCAG”, 7060 fluorescence intensity (a.u.). Next, “GAAAGTGGACTCTATTATTATCCTTCCTCTAATCACCCATCGGAGTCACCTAGTGCAG”: 19300 fluorescence intensity (a.u.); “AAGCGATCAAGAGGAAATAATTCAAATGGCTGCCCGGTTGCGGAGTCACCTAGTGCAG”: 3330 fluorescence intensity (a.u.); “GCCAATACTAGTACAGTGAGTGAGTCATTTGCATCTGCATCGGAGTCACCTAGTGCAG”: 8300 fluorescence intensity (a.u.). Consider “GCCGTAGAAAACAATGGATAGCACAGATTTGGCCAACTCCCGGAGTCACCTAGTGCAG”, for which the binding signal is 3250 fluorescence intensity (a.u.). For “TGCCCGGGGCGCGCTACTACGGCGGGAACGACGTCATCGACGGAGTCACCTAGTGCAG” the value was 3940 fluorescence intensity (a.u.); for “TCACATCCCATGCGAAGAACACATCACCCAGTTCACCACCCGGAGTCACCTAGTGCAG”, 4540 fluorescence intensity (a.u.). For the sequence “TGTCAGTTGGCGAGGGATGCACTGATGACTATGCTAGTGCCGGAGTCACCTAGTGCAG”, the binding signal is 4860 fluorescence intensity (a.u.). For “TGCATTCAGCGCTAGGTGCGAGAAGTGCTGGTCAAACACCCGGAGTCACCTAGTGCAG” the value was 32900 fluorescence intensity (a.u.); for “GTGCCATCCTGATTTGTCCCTCCCTGTCGCCTCACTGTTTCGGAGTCACCTAGTGCAG”, 3300 fluorescence intensity (a.u.); for “AGCCTCTTCCATCTCGAGCCAGCTCATATTGATTATCCAACGGAGTCACCTAGTGCAG”, 4850 fluorescence intensity (a.u.). For “ATTGAATCATTTACTATGCTCTGCTTCTTCTTTCAGTTCACGGAGTCACCTAGTGCAG” the value was 15200 fluorescence intensity (a.u.); for “GTGTACATCACACCGATAATAATCACGTAATCACGTTAGGCGGAGTCACCTAGTGCAG”, 3570 fluorescence intensity (a.u.). Next, “CTCCAAAGCAGATCCACCCACGCGCCACCAGCTCATCATTCGGAGTCACCTAGTGCAG”: 4560 fluorescence intensity (a.u.); “AGAATAGCTCCAATTCAAATTCGGAAAGCCAATCGTCTTCCGGAGTCACCTAGTGCAG”: 35000 fluorescence intensity (a.u.); “AGATAATCCATAATAATAATTAGCTTAATAATCTAAATCACGGAGTCACCTAGTGCAG”: 27300 fluorescence intensity (a.u.). As to “TAATTTAGTATTATAAAGAGGGTGTGATCGGTACCCTCTTCGGAGTCACCTAGTGCAG”, the binding signal is 3320 fluorescence intensity (a.u.).

For “TCCTCCTCCTCCTCCGCTCGATTCCTCCTCTCGCCTCGCTCGGAGTCACCTAGTGCAG”, the binding signal is 5220 fluorescence intensity (a.u.). Next, “AGCACTGTTGATCCTGCATGATTATCTTCGGCTGCTGATGCGGAGTCACCTAGTGCAG”: 4040 fluorescence intensity (a.u.); “ACACCGCTCGCCTCCGTCCGCCTCGCCTCCACCGAGAGGTCGGAGTCACCTAGTGCAG”: 27100 fluorescence intensity (a.u.); “GAGCGACGCGACGAGATTTTCCACGTGGATCGGGCCGGGACGGAGTCACCTAGTGCAG”: 14300 fluorescence intensity (a.u.). In the case of “CATGAAAGCTTGCAAGTCTAATAACACGTGTTTAATTGATCGGAGTCACCTAGTGCAG”, the binding signal is 4340 fluorescence intensity (a.u.). Next, “GATGTGGGTTTCGTACACCGGCAGGTGACGGGTCGTGTCCCGGAGTCACCTAGTGCAG”: 4130 fluorescence intensity (a.u.). For “CTGGTACTAATCTCTGACAGGGACAGAGTATTTACCAGTCCGGAGTCACCTAGTGCAG” the value was 4000 fluorescence intensity (a.u.). For “CTTCGTATGTATAAACTATATGTAAGGAAATATTGTATATCGGAGTCACCTAGTGCAG” the value was 16400 fluorescence intensity (a.u.). In the case of “TCAACAAGGAAATAAAATATCTGGTATTGTGGTTTTCAAGCGGAGTCACCTAGTGCAG”, the binding signal is 17600 fluorescence intensity (a.u.). Next, “GCGGCGCGGCCGGGACTTGGCCGGCGTGGTCTGTCTGACACGGAGTCACCTAGTGCAG”: 3230 fluorescence intensity (a.u.). For “CGTCCGTCATTGATTATGCCAGATCATAGCTGTACGTCGTCGGAGTCACCTAGTGCAG” the value was 6550 fluorescence intensity (a.u.). In the case of “GAGCTCCGACGAGCACCTCCCTGAAGCGTGGCAGGTCGAGCGGAGTCACCTAGTGCAG”, the binding signal was 3900 fluorescence intensity (a.u.). Regarding “TCATCTCTTCTCATCCATTTGCAATATCAAAATCACGGTGCGGAGTCACCTAGTGCAG”, the binding signal is 3210 fluorescence intensity (a.u.). Next, “AGCTTGTAAAATTCCTTTTAGTTGTGATTAGTGATAATTACGGAGTCACCTAGTGCAG”: 18800 fluorescence intensity (a.u.); “GGTTAAGTAATCAACCAGTGATAGTTGGTGTGTTTATGTACGGAGTCACCTAGTGCAG”: 28300 fluorescence intensity (a.u.); “AGAGCTGACTCACATAGTGCCAGCCTGGCCATTGTTTCTGCGGAGTCACCTAGTGCAG”: 13300 fluorescence intensity (a.u.).

With “CTTTACATGGGCCTTGAGCCCATGGGCTCAATGTTTCGGCCGGAGTCACCTAGTGCAG”, the binding signal is 29600 fluorescence intensity (a.u.). For “GTTGATAGTTGTCATATGCACTCCTTGTTAAGCTCGCTATCGGAGTCACCTAGTGCAG” the value was 3170 fluorescence intensity (a.u.); for “TCCACCTCCGCTGCGTGCTCCCCTCCCTGCGTCGGCGCCCCGGAGTCACCTAGTGCAG”, 3960 fluorescence intensity (a.u.). For “GAGTTTAATTAATTAATTTCTTAAAATTGATGTCATCACACGGAGTCACCTAGTGCAG” the value was 3140 fluorescence intensity (a.u.); for “GTCTCCTGACGCGCACACGCCACCAACACCGCGACGCGACCGGAGTCACCTAGTGCAG”, 3820 fluorescence intensity (a.u.). Next, “ACGTAGCCGTCACCGGGTTATAGCTGTTGCAAGCGGCGTCCGGAGTCACCTAGTGCAG”: 4290 fluorescence intensity (a.u.). For “GTTGGTGGTGTAAGTGCAACAAGGGATGGCGTTGGTATAACGGAGTCACCTAGTGCAG”, the binding signal is 13400 fluorescence intensity (a.u.). Turning to “TTTGGTGGTATGACGTCCCTGAAAAGGTGGTTCGAGGATGCGGAGTCACCTAGTGCAG”, the binding signal was 4360 fluorescence intensity (a.u.).
